According to patent publication US20210238615A1:
Results are given in words; binding and its absence hold for the method and conditions named. Some entries that bind do so weakly or less than the wild type.

Chains of the proteins cited; added tags and fusions are not shown. Lines headed by an entry give the natural chain unless they say otherwise; changes in a name come on top.
UniProt D0NRS4: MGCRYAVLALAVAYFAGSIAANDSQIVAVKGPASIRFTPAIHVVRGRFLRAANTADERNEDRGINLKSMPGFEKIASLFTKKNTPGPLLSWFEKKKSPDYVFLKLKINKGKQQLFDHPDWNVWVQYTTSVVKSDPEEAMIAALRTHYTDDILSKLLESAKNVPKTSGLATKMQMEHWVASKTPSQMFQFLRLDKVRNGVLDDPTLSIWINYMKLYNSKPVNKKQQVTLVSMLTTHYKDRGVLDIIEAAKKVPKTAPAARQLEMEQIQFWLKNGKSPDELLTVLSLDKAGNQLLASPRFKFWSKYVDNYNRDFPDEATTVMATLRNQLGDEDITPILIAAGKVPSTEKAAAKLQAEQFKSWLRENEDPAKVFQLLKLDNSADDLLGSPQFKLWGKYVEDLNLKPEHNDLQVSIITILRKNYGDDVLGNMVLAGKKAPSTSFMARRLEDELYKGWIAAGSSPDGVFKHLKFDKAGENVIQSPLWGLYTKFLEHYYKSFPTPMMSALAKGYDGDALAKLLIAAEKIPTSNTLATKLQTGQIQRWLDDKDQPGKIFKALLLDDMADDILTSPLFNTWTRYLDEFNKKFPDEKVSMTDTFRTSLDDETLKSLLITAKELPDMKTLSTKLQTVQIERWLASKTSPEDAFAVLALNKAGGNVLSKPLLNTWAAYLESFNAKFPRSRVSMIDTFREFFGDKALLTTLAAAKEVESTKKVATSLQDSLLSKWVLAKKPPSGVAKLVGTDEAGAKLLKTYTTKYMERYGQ

Key:
[1] = target: T1, Arabidopsis PP2A A2 (PDF1) (Arabidopsis) (UniProt Q38950); assay: yeast two hybrid (FIG. 4)
T1 sequence: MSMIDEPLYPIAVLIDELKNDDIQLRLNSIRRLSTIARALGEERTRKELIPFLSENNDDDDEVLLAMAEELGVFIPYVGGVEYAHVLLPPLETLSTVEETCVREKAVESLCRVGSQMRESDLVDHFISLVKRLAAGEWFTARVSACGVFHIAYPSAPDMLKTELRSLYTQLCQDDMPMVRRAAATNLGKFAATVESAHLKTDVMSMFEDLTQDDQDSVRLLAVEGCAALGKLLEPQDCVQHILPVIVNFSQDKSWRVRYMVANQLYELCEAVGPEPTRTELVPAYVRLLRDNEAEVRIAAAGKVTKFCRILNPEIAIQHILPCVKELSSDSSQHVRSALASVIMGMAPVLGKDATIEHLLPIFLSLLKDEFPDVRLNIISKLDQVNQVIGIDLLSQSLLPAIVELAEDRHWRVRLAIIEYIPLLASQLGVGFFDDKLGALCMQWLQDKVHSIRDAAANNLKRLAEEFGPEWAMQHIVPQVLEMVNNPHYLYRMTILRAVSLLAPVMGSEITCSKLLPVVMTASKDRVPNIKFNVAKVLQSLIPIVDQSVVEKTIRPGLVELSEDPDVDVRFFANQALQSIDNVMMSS

[2] = target: T2, Arabidopsis PP2A subunit A RCN1 (Arabidopsis) (UniProt Q38845); assay: yeast two hybrid (FIG. 4)
T2 sequence: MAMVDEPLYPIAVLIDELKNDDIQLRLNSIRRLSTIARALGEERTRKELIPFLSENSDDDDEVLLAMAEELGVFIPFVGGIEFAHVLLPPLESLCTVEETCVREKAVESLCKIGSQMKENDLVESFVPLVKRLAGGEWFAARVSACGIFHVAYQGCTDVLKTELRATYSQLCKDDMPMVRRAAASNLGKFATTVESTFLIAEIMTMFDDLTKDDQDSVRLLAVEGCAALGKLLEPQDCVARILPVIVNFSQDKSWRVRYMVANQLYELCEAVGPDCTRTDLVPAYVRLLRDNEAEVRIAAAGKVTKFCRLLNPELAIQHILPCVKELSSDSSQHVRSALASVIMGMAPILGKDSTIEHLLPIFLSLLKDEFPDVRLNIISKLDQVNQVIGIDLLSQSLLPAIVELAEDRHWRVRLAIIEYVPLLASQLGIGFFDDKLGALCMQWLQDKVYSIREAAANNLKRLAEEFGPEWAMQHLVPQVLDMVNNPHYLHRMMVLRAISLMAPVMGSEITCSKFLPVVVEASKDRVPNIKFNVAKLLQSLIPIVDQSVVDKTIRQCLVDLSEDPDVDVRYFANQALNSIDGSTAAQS

PiPSR2 (PSR2 encoded by Phytophthora infestans) (from UniProt D0NRS4 22-760)
binding [1]: binds | binding [2]: binds
